Test [1] concerns the target PP1^H66K-PNUTS fusion: Avitag PP1α (1-304, H66K) linked by SGSGS to PNUTS (408-940) (UniProt P62136). The experiment in a line: affinity purification with mass spectrometry.
In test [2] the target is T1, Full length Avitag-PNUTS 1-940 (UniProt Q96QC0).
T1 sequence: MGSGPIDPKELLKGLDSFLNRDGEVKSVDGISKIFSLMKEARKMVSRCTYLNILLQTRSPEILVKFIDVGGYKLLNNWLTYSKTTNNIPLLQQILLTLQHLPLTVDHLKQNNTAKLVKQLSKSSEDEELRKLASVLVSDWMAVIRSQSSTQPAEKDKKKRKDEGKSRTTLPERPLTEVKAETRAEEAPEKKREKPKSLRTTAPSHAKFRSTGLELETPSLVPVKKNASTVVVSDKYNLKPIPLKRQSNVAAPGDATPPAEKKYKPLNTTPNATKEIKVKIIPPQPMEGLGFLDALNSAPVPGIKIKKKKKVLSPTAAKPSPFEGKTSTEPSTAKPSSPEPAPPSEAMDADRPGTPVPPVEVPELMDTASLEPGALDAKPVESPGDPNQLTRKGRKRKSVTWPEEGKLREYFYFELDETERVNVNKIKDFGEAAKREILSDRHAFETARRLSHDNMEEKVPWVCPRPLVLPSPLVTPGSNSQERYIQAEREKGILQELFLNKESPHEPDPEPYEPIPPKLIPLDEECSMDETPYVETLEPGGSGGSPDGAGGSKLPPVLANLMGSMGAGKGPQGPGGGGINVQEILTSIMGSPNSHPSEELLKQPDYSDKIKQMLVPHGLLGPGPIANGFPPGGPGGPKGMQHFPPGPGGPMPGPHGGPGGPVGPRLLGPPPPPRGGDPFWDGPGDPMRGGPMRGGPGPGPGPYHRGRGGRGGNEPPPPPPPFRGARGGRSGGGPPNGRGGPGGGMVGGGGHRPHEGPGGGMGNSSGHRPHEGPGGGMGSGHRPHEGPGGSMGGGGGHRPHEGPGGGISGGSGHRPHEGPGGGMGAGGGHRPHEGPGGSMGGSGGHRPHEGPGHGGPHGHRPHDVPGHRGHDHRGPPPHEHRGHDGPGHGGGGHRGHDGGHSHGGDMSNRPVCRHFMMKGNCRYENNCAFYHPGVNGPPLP
Nature of the test: affinity purification with mass spectrometry.

Chains of the proteins cited; added tags and fusions are not shown. Lines headed by an entry give the natural chain unless they say otherwise; changes in a name come on top.
UniProt P62136: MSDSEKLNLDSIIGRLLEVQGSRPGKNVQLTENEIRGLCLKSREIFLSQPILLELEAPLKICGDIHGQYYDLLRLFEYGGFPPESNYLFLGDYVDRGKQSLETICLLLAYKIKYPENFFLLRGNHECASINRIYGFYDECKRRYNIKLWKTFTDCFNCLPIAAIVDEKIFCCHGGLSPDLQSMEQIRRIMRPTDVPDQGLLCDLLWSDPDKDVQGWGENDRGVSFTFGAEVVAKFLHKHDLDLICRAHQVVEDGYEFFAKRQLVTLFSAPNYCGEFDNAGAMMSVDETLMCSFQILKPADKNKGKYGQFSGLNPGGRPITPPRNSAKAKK

Results are given in words; binding and its absence hold for the method and conditions named. Binding seen in cells or lysates may run through a third protein. A yes stands for co-enrichment or nearness to the bait. Other partners may have been found. For some assays here: Sequences can lack the tags named with a protein.

B1: FIP1L1 (protein, UniProt Q6UN15 1-594)
chain: MSAGEVERLVSELSGGTGGDEEEEWLYGGPWDVHVHSDLAKDLDENEVERPEEENASANPPSGIEDETAENGVPKPKVTETEDDSDSDSDDDEDDVHVTIGDIKTGAPQYGSYGTAPVNLNIKTGGRVYGTTGTKVKGVDLDAPGSINGVPLLEVDLDSFEDKPWRKPGADLSDYFNYGFNEDTWKAYCEKQKRIRMGLEVIPVTSTTNKITAEDCTMEVTPGAEIQDGRFNLFKVQQGRTGNSEKETALPSTKAEFTSPPSLFKTGLPPSRNSTSSQSQTSTASRKANSSVGKWQDRYGRAESPDLRRLPGAIDVIGQTITISRVEGRRRANENSNIQVLSERSATEVDNNFSKPPPFFPPGAPPTHLPPPPFLPPPPTVSTAPPLIPPPGFPPPPGAPPPSLIPTIESGHSSGYDSRSARAFPYGNVAFPHLPGSAPSWPSLVDTSKQWDYYARREKDRDRERDRDRERDRDRDRERERTRERERERDHSPTPSVFNSDEERYRYREYAERGYERHRASREKEERHRERRHREKEETRHKSSRSNSRRRHESEEGDSHRRHKHKKSKRSKEGKEAGSEPAPEQESTEATPAE
Take B1: the binding entry in test [1] was “binds”.

B2: PPP1R2 (Inhibitor-2) (protein, UniProt P41236 1-205)
chain: MAASTASHRPIKGILKNKTSTTSSMVASAEQPRGNVDEELSKKSQKWDEMNILATYHPADKDYGLMKIDEPSTPYHSMMGDDEDACSDTEATEAMAPDILARKLAAAEGLEPKYRIQEQESSGEEDSDLSPEEREKKRQFEMKRKLHYNEGLNIKLARQLISKDLHDDDEDEEMLETADGESMNTEESNQGSTPSDQQQNKLRSS
In the case of B2, the binding entry in test [2] and in test [1] was “binds” in each case.

B3: PPP1R7 (protein, UniProt Q15435 1-360)
chain: MAAERGAGQQQSQEMMEVDRRVESEESGDEEGKKHSSGIVADLSEQSLKDGEERGEEDPEEEHELPVDMETINLDRDAEDVDLNHYRIGKIEGFEVLKKVKTLCLRQNLIKCIENLEELQSLRELDLYDNQIKKIENLEALTELEILDISFNLLRNIEGVDKLTRLKKLFLVNNKISKIENLSNLHQLQMLELGSNRIRAIENIDTLTNLESLFLGKNKITKLQNLDALTNLTVLSMQSNRLTKIEGLQNLVNLRELYLSHNGIEVIEGLENNNKLTMLDIASNRIKKIENISHLTELQEFWMNDNLLESWSDLDELKGARSLETVYLERNPLQKDPQYRRKVMLALPSVRQIDATFVRF
For B3, the binding result in test [1] was “binds”.

B4: PABPN1 (protein, UniProt Q86U42 1-306)
chain: MAAAAAAAAAAGAAGGRGSGPGRRRHLVPGAGGEAGEGAPGGAGDYGNGLESEELEPEELLLEPEPEPEPEEEPPRPRAPPGAPGPGPGSGAPGSQEEEEEPGLVEGDPGDGAIEDPELEAIKARVREMEEEAEKLKELQNEVEKQMNMSPPPGNAGPVIMSIEEKMEADARSIYVGNVDYGATAEELEAHFHGCGSVNRVTILCDKFSGHPKGFAYIEFSDKESVRTSLALDESLFRGRQIKVIPKRTNRPGISTTDRGFPRARYRARTTNYNSSRSRFYSGFNSRPRGRVYRGRARATSWYSPY
As for B4, the binding entry in test [1] was “binds”.

Source of the values: article doi:10.1101/2024.07.12.603302.
